Here are results for 1 molecule from publication PMC10914487, “Interaction of human dendritic cell receptor DEC205/CD205 with keratins” (The Journal of Biological Chemistry, 2024).

The assay addresses T1, K10-T3 (residue G521-Y584), SUMO fusion (human) (UniProt P13645).
T1 sequence: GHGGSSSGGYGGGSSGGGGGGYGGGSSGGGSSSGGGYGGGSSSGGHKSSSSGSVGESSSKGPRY
The assay can be described thus: far-Western, overlay or dot blot; keratin fragments resolved by SDS-PAGE and transferred to PVDF; membrane incubated with CysR∼CTLD3-Fc (10 μg/ml) in PBS, 5% milk, 0.1% Tween 20, pH 6.0 or pH 7.4, 2 h, room temperature; detected with HRP anti-human IgG Fcγ antibody; both purified.

Results are given in words; binding and its absence hold for the method and conditions named. Where a sequence is shown, tags or fusion partners need not be part of it.

B1: CysR∼CTLD3-Fc of DEC205 (Fc fusion, UniProt O60449 28-627)
chain: SGRAANDPFTIVHGNTGKCIKPVYGWIVADDCDETEDKLWKWVSQHRLFHLHSQKCLGLDITKSVNELRMFSCDSSAMLWWKCEHHSLYGAARYRLALKDGHGTAISNASDVWKKGGSEESLCDQPYHEIYTRDGNSYGRPCEFPFLIDGTWHHDCILDEDHSGPWCATTLNYEYDRKWGICLKPENGCEDNWEKNEQFGSCYQFNTQTALSWKEAYVSCQNQGADLLSINSAAELTYLKEKEGIAKIFWIGLNQLYSARGWEWSDHKPLNFLNWDPDRPSAPTIGGSSCARMDAESGLWQSFSCEAQLPYVCRKPLNNTVELTDVWTYSDTRCDAGWLPNNGFCYLLVNESNSWDKAHAKCKAFSSDLISIHSLADVEVVVTKLHNEDIKEEVWIGLKNINIPTLFQWSDGTEVTLTYWDENEPNVPYNKTPNCVSYLGELGQWKVQSCEEKLKYVCKRKGEKLNDASSDKMCPPDEGWKRHGETCYKIYEDEVPFGTNCNLTITSRFEQEYLNDLMKKYDKSLRKYFWTGLRDVDSCGEYNWATVGGRRRAVTFSNWNFLEPASPGGCVAMSTGKSVGKWEVKDCRSFKALSICKKMS
With B1, the binding entry was “no binding (tested: 10 μg/ml)”.
